Experimental data taken from patent US20100034831A1 (DOMANTIS, published 2010).
Where a chain is given by its changes, count along the chain named. These are yes or no findings as the source states them, for the method shown. Some results given as binding are weak or reduced against the parent protein; the word gives no strength. For part of these data: Sequences can lack the tags named with a protein.

Amino acid sequences for entries named in this document (tags omitted). A change or cut given only in a name is not applied to a line headed by its entry. Chains listed by the source or under a name are the forms on record and can include a tag or linker.
cynomolgus TNFR1 on cynomolgus embryo skin fibroblast cells (cynomolgus (Macaca fascicularis)) (Q2PFV5, form named): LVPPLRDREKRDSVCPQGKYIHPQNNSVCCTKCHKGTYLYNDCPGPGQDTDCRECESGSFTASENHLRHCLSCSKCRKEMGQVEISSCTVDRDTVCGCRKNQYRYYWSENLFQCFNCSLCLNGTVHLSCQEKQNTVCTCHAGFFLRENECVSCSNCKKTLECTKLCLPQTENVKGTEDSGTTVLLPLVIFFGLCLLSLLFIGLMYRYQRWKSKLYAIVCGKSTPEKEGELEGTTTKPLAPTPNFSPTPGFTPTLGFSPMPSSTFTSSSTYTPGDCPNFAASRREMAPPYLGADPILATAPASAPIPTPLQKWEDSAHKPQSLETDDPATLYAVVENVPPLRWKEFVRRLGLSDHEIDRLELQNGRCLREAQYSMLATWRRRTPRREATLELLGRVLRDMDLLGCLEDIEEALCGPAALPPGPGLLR

Columns and labels:
[1] = biological target: T1, mTNFR/Fc (R&D systems) (mouse) (UniProt P25118); assay: ELISA, plate coated with mTNFR/Fc, DOM1m standard or sample added
T1 sequence (looked up): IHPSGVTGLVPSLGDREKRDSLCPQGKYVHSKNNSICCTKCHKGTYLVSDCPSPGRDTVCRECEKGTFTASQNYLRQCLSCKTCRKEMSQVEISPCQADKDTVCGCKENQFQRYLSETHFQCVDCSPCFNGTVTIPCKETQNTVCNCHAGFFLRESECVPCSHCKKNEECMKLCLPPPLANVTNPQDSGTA

[2] = biological target: cynomolgus TNFR1 on cynomolgus embryo skin fibroblast cells (cynomolgus (Macaca fascicularis)) (UniProt Q2PFV5); assay: concluded from the cell-based IL-8 release assay on cynomolgus fibroblasts

B1: TAR2m-21-23 (anti-TNFR1 dAb monomer) (other)
VH: EVQLLESGGGLVQPGGSLRLSCAASGFTFNRYSMGWLRQAPGKGLEWVSRIDSYGRGTYYEDPVKGRFSISRDNSKNTLYLQMNSLRAEDTAVYYCAKISQFGSNAFDYWGQGTQVTVSS
With B1 the binding [1] was “binds”.

B2: TAR2h-131-511 (protein)
chain: EVQLLESGGGLVQPGGSLRLSCAASGFTFAHETMVWVRQAPGKGLEWVSHIPPVGQDPFYADSVKGRFTISRDNSKNTLYLQMNSLRAEDTAVYYCALLPKRGPWFDYWGQGTLVTVSS
B2 was tested, and the binding [2] was “binds”.

B3: TAR2h-131-117 (protein)
chain: B2 chain with P52D, P53R, F59Y, K65E, L98V
For B3, the binding [2] was “binds”.
